Consider one molecule from article PMC10277729.

In this test the target is T1, FLAG-FAM111B (human) (UniProt Q6SJ93).
T1 sequence: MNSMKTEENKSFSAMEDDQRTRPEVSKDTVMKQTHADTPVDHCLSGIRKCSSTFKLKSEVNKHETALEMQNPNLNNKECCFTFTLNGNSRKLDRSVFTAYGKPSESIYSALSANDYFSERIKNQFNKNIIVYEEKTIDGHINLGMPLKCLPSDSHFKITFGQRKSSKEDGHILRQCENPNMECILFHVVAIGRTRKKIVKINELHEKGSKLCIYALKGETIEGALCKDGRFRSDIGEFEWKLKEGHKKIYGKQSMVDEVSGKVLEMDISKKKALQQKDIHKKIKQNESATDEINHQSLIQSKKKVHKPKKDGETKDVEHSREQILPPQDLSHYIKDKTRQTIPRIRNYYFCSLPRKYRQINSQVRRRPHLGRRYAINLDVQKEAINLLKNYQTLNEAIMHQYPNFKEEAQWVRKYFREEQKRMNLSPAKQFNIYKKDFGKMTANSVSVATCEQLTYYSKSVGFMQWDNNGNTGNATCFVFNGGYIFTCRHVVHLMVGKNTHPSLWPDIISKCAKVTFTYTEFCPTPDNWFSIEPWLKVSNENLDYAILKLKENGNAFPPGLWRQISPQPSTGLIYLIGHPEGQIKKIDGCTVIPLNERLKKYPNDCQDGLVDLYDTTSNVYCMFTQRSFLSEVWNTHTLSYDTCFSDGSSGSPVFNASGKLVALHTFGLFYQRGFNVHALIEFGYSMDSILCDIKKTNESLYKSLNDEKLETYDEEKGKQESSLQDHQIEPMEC
The test can be described thus: co-IP; transiently transfected HEK293T lysed in 20 mM HEPES pH7.4, 150 mM KCl, 10% glycerol, 2 mM MgCl2, 0.5 mM DTT, 0.5% NP-40 with benzonase; M2 anti-FLAG agarose 2 h at 4°C, eluted with 3xFLAG peptide, immuno-blots.

These are yes or no findings as the source states them, for the method shown. In cells and extracts the contact can be indirect. Some binding calls cover weakened binding; strength is not graded here. Sequences can lack the tags named with a protein.

B1: NUP42 (protein, UniProt O15504 1-423)
chain: MAICQFFLQGRCRFGDRCWNEHPGARGAGGGRQQPQQQPSGNNRRGWNTTSQRYSNVIQPSSFSKSTPWGGSRDQEKPYFSSFDSGASTNRKEGFGLSENPFASLSPDEQKDEKKLLEGIVKDMEVWESSGQWMFSVYSPVKKKPNISGFTDISPEELRLEYHNFLTSNNLQSYLNSVQRLINQWRNRVNELKSLNISTKVALLSDVKDGVNQAAPAFGFGSSQAATFMSPGFPVNNSSSDNAQNFSFKTNSGFAAASSGSPAGFGSSPAFGAAASTSSGISTSAPAFGFGKPEVTSAASFSFKSPAASSFGSPGFSGLPASLATGPVRAPVAPAFGGGSSVAGFGSPGSHSHTAFSKPSSDTFGNSSISTSLSASSSIIATDNVLFTPRDKLTVEELEQFQSKKFTLGKIPLKPPPLELLNV
As to B1, the binding result is “binds”.
